Values quoted from earlier work as cited in US20170173060A1, “ACTIVATION OF THE ENDOGENOUS ILEAL BRAKE HORMONE PATHWAY FOR ORGAN REGENERATION AND RELATED COMPOSITIONS, METHODS OF TREATMENT, DIAGNOSTICS, AND REGULATORY SYSTEMS” (VOLANT HOLDINGS GMBH, priority 2014, published 2017).
For at least one compound, name, drawing or mass did not settle the structure.

Tested on: severely streptozotocin-diabetic rats
Conditions: rat, in vivo; cited from earlier work

CSCCC(NC(=O)C(Cc1c[nH]c2ccccc12)NC(=O)CNC(=O)C(Cc1ccc(O)cc1)NC(=O)C(C)NC(=O)C(CCC(=O)O)NC(=O)C(CCC(=O)O)NC(=O)C(CCC(=O)O)NC(=O)[C@H](CCC(=O)O)NC(=O)[C@H](CCC(=O)O)NC(=O)[C@H](CC(C)C)NC(=O)[C@H](Cc1c[nH]c2ccccc12)NC(=O)[C@@H]1CCCN1C(=O)CNC(=O)[C@@H](N)CCC(=O)O)C(=O)NC(CC(=O)O)C(=O)NC(Cc1ccccc1)C(N)=O (stereo in doubt) [gastrin]
glucose tolerance: neither gastrin nor EGF alone improved glucose tolerance
